No constants are given. Whether binding was seen depends on the method and setting. Binding seen in cells or lysates may run through a third protein. A yes stands for co-enrichment or nearness to the bait. Other partners may have been found.
Biological target: …OOF 2 fused to GFP (SHP2-GFP) (Arabidopsis) (UniProt P29385)
Experiment: affinity purification with mass spectrometry; GFP-trap magnetic beads (ChromoTek) on total protein from 1 g inflorescence of pSHP2:SHP2-GFP plants, with Col-0 wild type as control; lysis buffer 50 mM Tris/HCl pH 7.5, 150 mM NaCl, 10 mM MgCl2, 10% glycerol, 1 mM EDTA, 2 mM DTT, 1% Triton X-100, NP40; LC-MS/MS (DIA); three biological replicates

By UniProt entry, the sequences of proteins in these tests, tags left out. Where a name states a change or a piece, a line headed by the entry shows the natural chain unless it says otherwise.
UniProt A0A1P8BFE0: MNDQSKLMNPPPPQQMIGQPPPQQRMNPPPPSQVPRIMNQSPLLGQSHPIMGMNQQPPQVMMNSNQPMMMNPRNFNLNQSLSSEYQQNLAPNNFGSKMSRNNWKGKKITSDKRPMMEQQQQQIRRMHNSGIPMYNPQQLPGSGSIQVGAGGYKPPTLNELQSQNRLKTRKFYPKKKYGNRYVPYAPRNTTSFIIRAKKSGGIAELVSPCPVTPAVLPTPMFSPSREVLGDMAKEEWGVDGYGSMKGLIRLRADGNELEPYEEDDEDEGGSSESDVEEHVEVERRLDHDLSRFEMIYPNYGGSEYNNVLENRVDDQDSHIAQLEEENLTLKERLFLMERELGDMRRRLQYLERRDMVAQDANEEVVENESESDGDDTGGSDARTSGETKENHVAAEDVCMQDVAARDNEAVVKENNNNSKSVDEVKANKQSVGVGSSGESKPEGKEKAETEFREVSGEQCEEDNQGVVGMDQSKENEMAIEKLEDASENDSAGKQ

Substance	binding
… 3 (Agamous-like MADS-box protein AGL9) (from UniProt O22456 1-251)	binds
MADS-box protein AGL11 (Protein …) (from UniProt Q38836 1-230)	binds
MADS-box protein SHORT … PHASE (from UniProt Q9FVC1 1-240)	binds
…OOF 1 (SHP1) (from UniProt P29381 1-248)	binds
AT5G19900 protein (PRLI-interacting factor) (from UniProt A0A1P8BFE0)	binds

Reference: PMC11723901
